Source: the ROBIN nucleic acid binder screens (doi:10.1002/anie.202211358).

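Compounds were printed on reactive glass slides in duplicate spots, a dye-labelled oligonucleotide was laid over them, and the fluorescence left after washing was read. The data file lists only calls. An earlier report of the laboratory on the PreQ1, TPP and SAM-II riboswitches (doi:10.1038/s41467-019-09493-3) used 1 µM RNA for 2 h and required a mean Z-score above 3 (spot signal-to-noise against the whole library), a score well above that on a control array, and duplicate spots agreeing (coefficient of variation under 100); it then also set aside compounds that hit other targets, which this list keeps. The cut-offs behind this list may differ. These are primary screening calls, not affinities; a compound without a hit may have attached poorly or may still bind in solution.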
A compound is marked active if it was called a hit and inactive if it was screened but was not.
Compounds were drawn at random from those tested, without regard to their results.
A target missing from an entry has no call listed here.

Targets (5′ to 3′):
SAM-II: SAM-II riboswitch RNA pseudoknot, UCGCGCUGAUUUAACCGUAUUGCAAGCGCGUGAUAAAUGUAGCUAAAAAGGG. About 200 hits among about 21,000 compounds.
PreQ1: PreQ1 riboswitch RNA pseudoknot, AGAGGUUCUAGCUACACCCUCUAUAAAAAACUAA. From B. subtilis. About 170 hits among about 24,000 compounds.
TPP: TPP riboswitch RNA three-way junction, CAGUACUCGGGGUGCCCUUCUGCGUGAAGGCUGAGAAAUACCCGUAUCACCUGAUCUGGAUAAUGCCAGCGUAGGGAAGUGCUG. About 160 hits among about 24,000 compounds.

For C=C1C(=O)OC(CCCCCCCC)C1C(=O)O (stereo not given) the calls were SAM-II: inactive; PreQ1: inactive; TPP: inactive. Calls for Cc1nccn1-c1ccccc1CNC(C)Cn1cnc2ccccc2c1=O (stereo not given) are SAM-II: inactive; PreQ1: inactive; TPP: inactive. Calls for Cc1nc(NCCN)c(C#N)c2c1COC(C)(C)C2 are SAM-II: inactive; PreQ1: inactive; TPP: inactive. For Cn1c2ccccc2c2nnc(NCCCN3CCCCCC3)nc21 the calls were PreQ1: inactive; TPP: active. For Cc1noc(C)c1CN1CCC2(CCC(=O)N([C@H]3CC[C@H](O)CC3)C2)CC1 the calls were SAM-II: inactive; PreQ1: inactive; TPP: inactive. With COc1ccc2c(c1)sc(=N)n2CCO the screen gave SAM-II: inactive; PreQ1: active; TPP: inactive. Calls for COc1c(N2C[C@@H]3CCCN[C@@H]3C2)c(F)cc2c(=O)c(C(=O)O)cn(C3CC3)c12.Cl.O are SAM-II: inactive; PreQ1: inactive; TPP: inactive.

With Cc1ccc(OCC(=O)Oc2cccc(NC3=NS(=O)(=O)c4ccccc43)c2)cc1 the screen gave SAM-II: inactive; PreQ1: inactive; TPP: inactive. With CC(c1ccccc1)C1C(C#N)=C(N)OC2=C1C(=O)CC(C)(C)C2 (stereo not given) the screen gave SAM-II: inactive; PreQ1: inactive; TPP: inactive. Cc1cccc([C@H]2C[C@@H](c3ccccc3Cl)Nc3nc(N)nn32)c1 was scored SAM-II: inactive; PreQ1: inactive; TPP: inactive. Calls for CCN1C(=O)C2(C(C#N)=C(N)Oc3c2c(C)nn3-c2ccccc2)c2ccccc21 (stereo not given) are SAM-II: inactive; PreQ1: inactive; TPP: inactive. With OCCSc1nnc(COc2ccc(Br)cc2)n1-c1ccccc1 the screen gave PreQ1: inactive; TPP: inactive. With Fc1ccc(-c2noc3ncnc(NCCCN4CCOCC4)c23)cc1 the screen gave PreQ1: inactive; TPP: inactive. With CC[C@@]1(O)CCN(C(=O)CCCn2cnnn2)C[C@H]1O the screen gave SAM-II: inactive; PreQ1: inactive; TPP: inactive.

Nc1nnc(CCCNC(=O)C2CCCN(C3CCOCC3)C2)s1 (stereo not given) was scored SAM-II: inactive; PreQ1: inactive; TPP: inactive. O=C1CC(NCCc2c[nH]c3ccccc23)C(=O)N1c1ccccc1 (stereo not given) was scored SAM-II: inactive; PreQ1: inactive; TPP: inactive. S=C(Nc1ccccc1)c1ccccn1 was scored SAM-II: inactive; PreQ1: inactive; TPP: inactive. CCn1nc(CO)c2c1CCN(Cc1cc(O)c3cc(C)ccc3n1)C2 was scored SAM-II: inactive; PreQ1: inactive; TPP: inactive. CN(Cc1ccc(CCC(C)(C)O)cc1)Cc1cnc(N)nc1 was scored SAM-II: inactive; PreQ1: inactive; TPP: inactive. CCC(O)c1nc2ccccc2n1CCCOc1ccccc1Cl (stereo not given) was scored PreQ1: inactive; TPP: inactive. For COc1ccc(-c2cc(F)cc3c2OC(CN)C3)cc1C(F)(F)F (stereo not given) the calls were SAM-II: inactive; PreQ1: inactive; TPP: inactive.

With O=S1(=O)N=C(Nc2ccc(N3CCCC3)c(Cl)c2)c2ccccc21 the screen gave SAM-II: inactive; PreQ1: inactive; TPP: inactive. With CCO[C@H]1C[C@@H](O)C12CCN(C(=O)c1ccnc(-n3cnnc3)c1)CC2 the screen gave SAM-II: inactive; PreQ1: inactive; TPP: inactive. Cc1cc(NCc2ccccc2)nc(N2CCOCC2)n1 was scored SAM-II: inactive; PreQ1: inactive; TPP: inactive.

Once more, the final 2:

Compound,SAM-II,PreQ1,TPP
CCO[C@H]1C[C@@H](O)C12CCN(C(=O)c1ccnc(-n3cnnc3)c1)CC2,inactive,inactive,inactive
Cc1cc(NCc2ccccc2)nc(N2CCOCC2)n1,inactive,inactive,inactive